Values joined by “and” are separate entries in the source; they are usually repeats but may differ in a detail not shown here. Equal entries are not always repeated. Inconclusive results, whose numbers are uncertain, are shown with a selection of clear calls. For some assays here: Where the call is inconclusive, the potency comes from a doubtful curve fit. More than one record can exist for a structure, and the calls need not agree. Active and inactive are the calls of the source. Unless noted, calls follow the shape of the full dose curve.
Key:
[1] = Nuclear factor erythroid 2-related factor 2/antioxidant responsive element (Nrf2/ARE) small molecule agonists: luciferase reporter gene qHTS assay in human keratinocytes (AID 1919969); settings: KeratinoSens HaCaT ARE-luciferase, luminescence, 24 h; activity, positive = activation: at 92.4 µM (top of the series); also: nearly all actives have a fitted effect of over 35% in size; also: potency is read from the fitted curve at half-maximal effect; as to activity, positive = activation: % is scaled to controls: 0 for no effect and ±100 for the full control effect
[2] = p53 small molecule agonists, cell-based qHTS assay with human liver microsomes (AID 1963577); settings: HCT-116 p53RE-bla with human liver microsomes, ratio, 16 h; activation: at 66 µM (top of the series) unless noted; also: potency is read from the fitted curve at half-maximal effect
Outline: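 Steps: plate p53RE-bla cells, incubate 5 h at 37 C; add compound in DMSO; add microsomes (0.5 mg/mL final) and NADPH (0.5 mg/mL final); incubate 16 h at 37 C; add LiveBLAzer, 2 h RT; read fluorescence.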

Chains of the proteins cited; added tags and fusions are not shown. Lines headed by an entry give the natural chain unless they say otherwise; changes in a name come on top.
UniProt P11229: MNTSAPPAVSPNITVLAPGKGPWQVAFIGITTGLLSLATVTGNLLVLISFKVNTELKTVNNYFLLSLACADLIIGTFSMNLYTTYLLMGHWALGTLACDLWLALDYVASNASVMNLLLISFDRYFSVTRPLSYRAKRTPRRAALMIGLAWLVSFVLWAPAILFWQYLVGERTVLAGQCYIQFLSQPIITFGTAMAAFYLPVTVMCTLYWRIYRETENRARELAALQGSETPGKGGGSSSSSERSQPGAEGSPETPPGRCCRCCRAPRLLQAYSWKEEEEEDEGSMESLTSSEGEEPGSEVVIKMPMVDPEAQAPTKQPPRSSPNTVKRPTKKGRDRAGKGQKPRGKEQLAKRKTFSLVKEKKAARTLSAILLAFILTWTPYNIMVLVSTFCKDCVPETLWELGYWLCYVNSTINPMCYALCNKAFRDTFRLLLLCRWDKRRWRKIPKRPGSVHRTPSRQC
UniProt P28223, whole entry, looked up: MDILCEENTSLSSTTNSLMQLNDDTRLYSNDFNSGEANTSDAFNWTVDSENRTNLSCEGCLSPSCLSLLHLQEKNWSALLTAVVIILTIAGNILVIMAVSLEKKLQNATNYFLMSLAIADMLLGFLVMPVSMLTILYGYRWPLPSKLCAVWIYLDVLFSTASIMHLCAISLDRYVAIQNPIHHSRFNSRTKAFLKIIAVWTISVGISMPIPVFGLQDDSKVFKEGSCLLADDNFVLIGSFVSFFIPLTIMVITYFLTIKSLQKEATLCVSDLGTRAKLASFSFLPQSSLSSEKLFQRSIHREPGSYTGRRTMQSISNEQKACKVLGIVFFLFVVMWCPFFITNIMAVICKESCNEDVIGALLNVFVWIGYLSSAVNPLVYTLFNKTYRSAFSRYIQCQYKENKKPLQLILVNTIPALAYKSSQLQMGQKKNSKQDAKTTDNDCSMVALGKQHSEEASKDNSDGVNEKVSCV
UniProt P14416, whole entry, looked up: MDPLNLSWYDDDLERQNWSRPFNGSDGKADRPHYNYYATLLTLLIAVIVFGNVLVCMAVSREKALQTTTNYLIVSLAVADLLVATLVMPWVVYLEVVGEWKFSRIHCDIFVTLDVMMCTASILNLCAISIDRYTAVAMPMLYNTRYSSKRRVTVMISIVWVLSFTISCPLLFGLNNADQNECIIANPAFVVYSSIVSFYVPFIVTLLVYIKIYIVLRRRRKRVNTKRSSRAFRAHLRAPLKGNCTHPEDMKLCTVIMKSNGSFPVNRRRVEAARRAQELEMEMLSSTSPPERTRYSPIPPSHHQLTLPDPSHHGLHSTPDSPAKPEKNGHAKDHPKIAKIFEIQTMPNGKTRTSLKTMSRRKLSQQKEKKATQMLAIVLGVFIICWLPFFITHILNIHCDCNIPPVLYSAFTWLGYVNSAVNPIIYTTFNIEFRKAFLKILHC

[3] = p53 small molecule agonists, cell-based qHTS assay (AID 1963582; active = well fitted activation curve with a large enough effect in the signal ratio in the repeat runs, not every such curve was filed as active; inconclusive = weak or mixed curves; the % refers to the signal ratio; also: potency is read from the fitted curve at half-maximal effect); settings: HCT-116 p53RE-bla reporter, beta-lactamase FRET ratio, 16 h; activation: at 66 µM (top of the series) unless noted
Outline: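 After plating, p53RE-bla cells sat 5 h in the incubator; compounds or DMSO vehicle were pinned in; a 16 h incubation at 37 C followed; FRET substrate was added and, 2 h later at RT, fluorescence was measured.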

[4] = biological target: Muscarinic acetylcholine receptor M1 (Homo sapiens) (UniProt P11229); test: Cholinergic receptor muscarinic 1 (CHRM1) small molecule antagonists, cell-based qHTS assay (AID 1963588); settings: CHRM1-CHO antagonist mode, calcium flux fluorescence; series mostly up to 61.5 µM; also: nearly all actives have a fitted effect of over 40% in size; also: potency is read from the fitted curve at half-maximal effect
Outline: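 Compounds were tested at 15 concentrations in three independent runs. Dye-loaded CHRM1-CHO cells were exposed 5 min at room temperature before stimulation by acetylcholine added at 50nM. Intracellular calcium was read kinetically on FDSS for 3 min.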

[5] = cAMP Responsive Elements (CRE) small molecule antagonists, cell-based qHTS assay (AID 1963591; active = well fitted inhibition curve with a large enough effect in the signal ratio in the repeat runs, not every such curve was filed as active; inconclusive = weak or mixed curves, or effect the other way; the % refers to the signal ratio; also: potency is read from the fitted curve at half-maximal effect; as to activity change, negative = inhibition: % is scaled to controls: 0 for no effect and ±100 for the full control effect); settings: CRE-bla HEK293T, beta-lactamase FRET ratio; activity change, negative = inhibition: at 92.4 µM (top of the series) unless noted
Outline: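 Stimulation used NKH477 at a final 0.25 uM for 3 h in compound-treated CRE-bla HEK293T cells, seeded 18 h beforehand. Reporter activity was measured with LiveBLAzer B/G FRET substrate after 2 h at room temperature.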

[6] = biological target: Beta-2 adrenergic receptor (Homo sapiens) (UniProt P07550); test: Adrenergic beta2 receptor (ADRB2) small molecule antagonists, cell-based qHTS assay (AID 1963592); settings: CHO-ADRB2 cells, isoproterenol-stimulated cAMP HTRF ratio, 0.5 h; activity change, negative = inhibition: at 92.4 µM (top of the series) unless noted; also: nearly all actives have a fitted effect of over 50% in size; also: potency is read from the fitted curve at half-maximal effect; as to activity change, negative = inhibition: % is scaled to controls: 0 for no effect and ±100 for the full control effect
Outline: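 Assay format: CHO-ADRB2 cells, 18-20hr seeding at 37C/5% CO2, then compound plus 1nM isoproterenol agonist mix for 0.5hr RT. Homogeneous time-resolved fluorescence cAMP detection after 1hr, expressed as 665/615 nm ratio.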

[7] = p53 small molecule agonists, cell-based qHTS assay: qHTS cell viability counter screen (AID 1963581); settings: p53RE-bla HCT-116 viability, ATP luminescence, 16 h; series mostly up to 66 µM; also: nearly all actives have a fitted effect of over 45% in size; also: potency is read from the fitted curve at half-maximal effect
Outline: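 Luminescence from CellTiter-Glo, reflecting ATP content, serves as the cytotoxicity measure; it is taken after the 2 h reporter substrate step in HCT-116 p53RE-bla cells dosed for 16 h at 37 C.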

[8] = biological target: 5-hydroxytryptamine receptor 2A (Homo sapiens) (UniProt P28223); test: 5-hydroxytryptamine receptor 2A (HTR2A) small molecule antagonists, cell-based qHTS assay (AID 1963586); settings: HTR2A-CHO cells, DOI-induced calcium flux, fluorescence; series mostly up to 61.5 µM; also: nearly all actives have a fitted effect of over 45% in size; also: potency is read from the fitted curve at half-maximal effect
Outline: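 CHO cells stably expressing human HTR2A were plated for 18 h at 37 C, then loaded with calcium dye for 1 h. Compounds were preincubated 5 min at room temperature before DOI (4 nM solution) was added. Kinetic fluorescence was read for 3 min.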

[9] = biological target: 5-hydroxytryptamine receptor 2A (Homo sapiens) (UniProt P28223); test: 5-hydroxytryptamine receptor 2A (HTR2A) small molecule agonists, cell-based qHTS assay (AID 1963587); settings: HTR2A-CHO cells, calcium flux fluorescence, agonist mode; series mostly up to 76.8 µM; also: % is scaled to controls: 0 for no effect and ±100 for the full control effect; nearly all actives have a fitted effect of over 30% in size
Outline: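 Kinetic calcium-flux fluorescence (2 min, 1 sec intervals) after compound addition in agonist mode. HTR2A-CHO cells were cultured 18 h, then dye-loaded 1 h at 37 C.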

[10] = biological target: Beta-2 adrenergic receptor (Homo sapiens) (UniProt P07550); test: Adrenergic beta2 receptor (ADRB2) small molecule agonists, cell-based qHTS assay (AID 1963593); settings: CHO-ADRB2 cells, cAMP HTRF, 30 min; also: potency is read from the fitted curve at half-maximal effect;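 as to activation: CHO cells stably overexpressing human ADRB2; % is scaled to controls: 0 for no effect and ±100 for the full control effect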
Outline: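 CHO cells stably over-expressing ADRB2 were plated overnight at 37C, then dosed with compounds plus a stimulation mix containing 100uM IBMX and 25uM Ro-20-1724 for 0.5hr at room temperature. cAMP was measured by HTRF competition, 1hr.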

[11] = p53 small molecule agonists, cell-based qHTS assay with human liver microsomes: qHTS cell viability counter screen (AID 1963579); settings: p53RE-bla HCT-116 viability, ATP luminescence, 16 h, HLM; series mostly up to 66 µM; also: nearly all actives have a fitted effect of over 45% in size; also: potency is read from the fitted curve at half-maximal effect
Outline: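 After the 460/530 nm beta-lactamase read, CellTiter-Glo was added to the same wells and luminescence measured after 30 min at room temperature, giving viability of p53RE-bla cells treated 16 h with compounds plus microsomes and NADPH.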

[12] = cAMP Responsive Elements (CRE) small molecule agonists, cell-based qHTS assay (AID 1963590); settings: CRE-bla HEK293T, beta-lactamase FRET ratio, 3 h; activation: at 92.4 µM (top of the series) unless noted; also: potency is read from the fitted curve at half-maximal effect
Outline: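 Compound exposure lasted 3 h at 37 C/5% CO2 in CRE-bla HEK 293T cells grown in assay medium with 10% dialyzed FBS and 25 mM HEPES. Reporter signal came from LiveBLAzer B/G FRET substrate, 2 h, room temperature.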

[13] = biological target: D(2) dopamine receptor (Homo sapiens) (UniProt P14416); test: Dopamine D2 receptor (DRD2) small molecule agonists, cell-based qHTS assay (AID 1963594); settings: HEK293-DRD2 cAMP HTRF, agonist mode, 30 min; activation: at 92.4 µM (top of the series) unless noted; also: potency is read from the fitted curve at half-maximal effect; nearly all actives have a fitted effect of over 35% in size
Outline: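 cAMP accumulation in DRD2-HEK293 cells measured by HTRF after 1 h detection; compounds added 10 min before NKH477 (200nM […]) forskolin-analogue stimulation, 30 min at room temperature, with Ro20-1724 present at 0.1 mM final.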

[14] = p53 small molecule agonists, cell-based qHTS assay with rat liver microsomes: qHTS cell viability counter screen (AID 1963580); settings: p53RE-bla HCT-116 + rat microsomes, ATP viability, 16 h; series mostly up to 66 µM; also: potency is read from the fitted curve at half-maximal effect; nearly all actives have a fitted effect of over 45% in size
Outline: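 Rat liver microsome (0.5 mg/mL final) and NADPH (0.5 mg/mL final) co-incubation with compounds for 16 h at 37 C on HCT-116 p53RE-bla cells; cytotoxicity taken from intracellular ATP luminescence.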

[15] = biological target: D(2) dopamine receptor (Homo sapiens) (UniProt P14416); test: Dopamine D2 receptor (DRD2) small molecule antagonists, cell-based qHTS assay (AID 1963595; active = well fitted inhibition curve with a large enough effect in the signal ratio in the repeat runs, with a control signal flat; inconclusive = weak or mixed curves, or effect the other way; the % refers to the signal ratio; also: potency is read from the fitted curve at half-maximal effect); settings: HEK293-DRD2 cAMP HTRF antagonist mode; activity change, negative = inhibition: at 92.4 µM (top of the series) unless noted
Outline: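 In this cell-based antagonist screen, compounds act for 10 min at room temperature before a 30 min challenge with 12 nM quinpirole and 200 nM NKH477. cAMP is quantified by HTRF competition in DRD2-HEK293 cells containing 0.1 mM Ro20-1724.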

[16] = p53 small molecule agonists, cell-based qHTS assay with rat liver microsomes (AID 1963578); settings: HCT-116 p53RE-bla, beta-lactamase ratio, 16 h; activation: at 66 µM (top of the series) unless noted; also: potency is read from the fitted curve at half-maximal effect
Outline: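 Metabolic activation is supplied by rat liver microsomes with NADPH (each 0.5 mg/mL final). p53RE-bla cells incubate with compound 16 h at 37 C; reporter activity is measured by LiveBLAzer fluorescence.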

[17] = activation: at 92.4 µM (top of the series) unless noted

CCOC(=O)NCCOc1ccc(Oc2ccccc2)cc1
Potency [1]: inactive
Potency [2]: inconclusive: 36.3 µM [rising, partial curve]
Potency [3]: inconclusive: 12.9 µM [rising, partial curve]
Potency [4]: active: 29.8 µM
activity change, negative = inhibition [5]: inconclusive: -12.6%
activity change, negative = inhibition [6]: inconclusive: -23.7%

Cc1ccc(NC(=O)c2ccc(CN3CCN(C)CC3)cc2)cc1Nc1nccc(-c2cccnc2)n1
Potency [1]: inactive
Potency [2]: inconclusive: 1.99 µM [rising, full curve]
Potency [7]: inactive
Potency [5]: inconclusive: 33.5 µM [inhibitor]

Cn1ccc2cc3c(cc21)CCN3C(=O)Nc1cccnc1
activity, positive = activation [1]: inactive: 26.3% [at 19 µM]
Potency [2]: inconclusive: 9.73 µM [rising, partial curve]
Potency [8]: inconclusive: 1.26 µM [inhibitor, full curve, poor fit]
activation [9]: inactive: -6.77% [at 15.9 µM]
activity change, negative = inhibition [6]: inactive: 0.687% [at 19 µM]
activation [10, 17]: inactive: -9.02% [at 19 µM]

O=C(O)c1ccc(-n2nc(-c3ccccc3O)nc2-c2ccccc2O)cc1
Potency [1]: inconclusive: 13.3 µM [activator]
Potency [2]: inconclusive: 8.9 µM [fluorescent, partial curve, poor fit]
Potency [11]: inactive
Potency [12]: inconclusive: 26.6 µM [rising, partial curve]
activity change, negative = inhibition [5]: inconclusive: 19.5% [at 42.4 µM]
Potency [13]: active: 11.2 µM

C=C[Si](OC(C)=O)(OC(C)=O)OC(C)=O
Potency [1]: inconclusive: 68.6 µM [activator, single point]
activation [2]: inconclusive: -15.5%
Potency [11]: inconclusive: 45.8 µM [cytotoxic, single point]
Potency [14]: inconclusive: 45.8 µM [cytotoxic, single point]
Potency [7]: inactive

CCCCC1C(=O)N(c2ccccc2)N(c2ccccc2)C1=O
Potency [1]: inactive
activation [2]: inconclusive: 10.3% [at 30.3 µM]
Potency [3]: inconclusive: 51.3 µM [rising, single point] and inconclusive: 19.9 µM [rising, single point]
Potency [10, 17]: inconclusive: 9.62 µM [inhibitor, partial curve, poor fit] and inconclusive: 8.63 µM [inhibitor, full curve]

CCOC(=O)COC(=O)c1cc(Oc2ccc(C(F)(F)F)cc2Cl)ccc1[N+](=O)[O-]
Potency [1]: inactive
Potency [2]: inconclusive: 40.8 µM [fluorescent]
Potency [3]: inconclusive: 28.9 µM [rising, partial curve]
Potency [8]: inactive
Potency [12]: inconclusive: 54.5 µM [rising, partial curve]
Potency [5]: inconclusive: 34.4 µM [fluorescent, partial curve]
Potency [6]: active: 61.1 µM
Potency [10, 17]: inconclusive: 68.6 µM [inhibitor, partial curve]
Potency [15]: inconclusive: 68.6 µM [inhibitor, single point]

NC(=O)Nc1nc2ccccc2[nH]1
Potency [1]: inconclusive: 68 µM [activator, partial curve, poor fit]
Potency [2]: inconclusive: 36.1 µM [fluorescent, partial curve]
Potency [8]: inactive
Potency [4]: inactive
Potency [6]: inactive

Clc1cc(Cl)c2c(c1)N=C1CCCCCN1C2
Potency [1]: inconclusive: 29.8 µM [activator, single point]
Potency [2]: inactive
Potency [7]: inconclusive: 1.99 µM [cytotoxic, single point]
Potency [4]: inconclusive: 0.326 µM [inhibitor, full curve, poor fit]
Potency [5]: inconclusive: 37.6 µM [activator, single point]
activity change, negative = inhibition [15]: inconclusive: 3.08% [at 42.5 µM]

COC(=O)CCCCCCCC(=O)OC
Potency [1]: inconclusive: 77 µM [activator]
Potency [2]: inactive
Potency [11]: inconclusive: 51.3 µM [cytotoxic, single point]
Potency [12]: inactive
Potency [5]: inactive

C=CC(=O)OCC(O)COc1ccccc1 (stereo unspecified)
Potency [1]: active: 68.6 µM
Potency [2]: inactive
Potency [3]: inconclusive: 51.3 µM [rising, single point]
Potency [12]: inconclusive: 38.6 µM [rising, partial curve]
activity change, negative = inhibition [5]: inconclusive: -32.8%
Potency [10, 17]: inconclusive: 61.1 µM [activator, single point]

O=C(O)c1ccccc1
Potency [1]: inactive
activation [2]: inconclusive: 11%
Potency [16]: inconclusive: 18.8 µM [activator, full curve]
Potency [7]: inconclusive: 27 µM [cytotoxic, partial curve, poor fit]
Potency [3]: inconclusive: 0.762 µM [falling, single point]
Potency [10, 17]: inconclusive: 0.611 µM [inhibitor, single point]
activation [10, 17]: inconclusive: 4.65%
activation ([10]; at 8.39 µM (top of the series)): inactive: 25.8%
activation ([10]; at 92.4 µM (top of the series)): inactive: 14.5% and inactive: 0.333%

— PubChem BioAssay (Tox21)
